Consider one sequence from patent publication US20110269211.

Changes are numbered by the printed parent chain. Construct, isoform or probe ends are uncertain for at least one entry. Protein sequences can lack the tags named with them.

What all share (experiment): activity assay
Data set [1] concerns T1, Kofu clone 5/7-A6 R410H,A550V,P450L,K480M,K505R,K562R,P743T,V767A (Artificial (KOD/Pfu chimera)).
T1 sequence (limits assumed): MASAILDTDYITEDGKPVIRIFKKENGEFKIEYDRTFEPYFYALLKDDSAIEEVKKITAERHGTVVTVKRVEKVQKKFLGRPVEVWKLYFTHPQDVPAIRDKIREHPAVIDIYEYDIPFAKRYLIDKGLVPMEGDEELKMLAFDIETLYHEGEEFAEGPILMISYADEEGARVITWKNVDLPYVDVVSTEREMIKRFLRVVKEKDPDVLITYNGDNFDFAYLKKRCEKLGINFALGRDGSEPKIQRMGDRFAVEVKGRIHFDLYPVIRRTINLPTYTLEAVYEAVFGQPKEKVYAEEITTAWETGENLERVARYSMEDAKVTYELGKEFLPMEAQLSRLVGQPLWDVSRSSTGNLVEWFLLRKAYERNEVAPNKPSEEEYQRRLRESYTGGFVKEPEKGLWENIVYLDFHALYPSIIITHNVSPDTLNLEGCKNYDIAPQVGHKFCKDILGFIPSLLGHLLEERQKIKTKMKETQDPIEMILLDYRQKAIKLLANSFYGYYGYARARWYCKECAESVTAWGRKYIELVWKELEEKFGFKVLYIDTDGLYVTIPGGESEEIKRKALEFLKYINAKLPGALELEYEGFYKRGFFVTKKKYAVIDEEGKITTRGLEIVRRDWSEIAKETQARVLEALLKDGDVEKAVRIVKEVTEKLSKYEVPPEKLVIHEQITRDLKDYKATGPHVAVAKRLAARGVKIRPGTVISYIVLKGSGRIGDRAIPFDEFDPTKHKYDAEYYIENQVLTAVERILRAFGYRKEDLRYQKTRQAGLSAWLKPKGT
The settings on record: M13 primer extension, 2.5 mM MgCl2, 50 C; heparin elution 33.8 mS/cm; purified recombinant protein.

Data set [2] relates to T2, Kofu clone 11/5Hi-E3 R410H,F591L,E580G,K588R,K597R,A679V,R693Q,D725E (Artificial (KOD/Pfu chimera)).
T2 sequence (limits assumed): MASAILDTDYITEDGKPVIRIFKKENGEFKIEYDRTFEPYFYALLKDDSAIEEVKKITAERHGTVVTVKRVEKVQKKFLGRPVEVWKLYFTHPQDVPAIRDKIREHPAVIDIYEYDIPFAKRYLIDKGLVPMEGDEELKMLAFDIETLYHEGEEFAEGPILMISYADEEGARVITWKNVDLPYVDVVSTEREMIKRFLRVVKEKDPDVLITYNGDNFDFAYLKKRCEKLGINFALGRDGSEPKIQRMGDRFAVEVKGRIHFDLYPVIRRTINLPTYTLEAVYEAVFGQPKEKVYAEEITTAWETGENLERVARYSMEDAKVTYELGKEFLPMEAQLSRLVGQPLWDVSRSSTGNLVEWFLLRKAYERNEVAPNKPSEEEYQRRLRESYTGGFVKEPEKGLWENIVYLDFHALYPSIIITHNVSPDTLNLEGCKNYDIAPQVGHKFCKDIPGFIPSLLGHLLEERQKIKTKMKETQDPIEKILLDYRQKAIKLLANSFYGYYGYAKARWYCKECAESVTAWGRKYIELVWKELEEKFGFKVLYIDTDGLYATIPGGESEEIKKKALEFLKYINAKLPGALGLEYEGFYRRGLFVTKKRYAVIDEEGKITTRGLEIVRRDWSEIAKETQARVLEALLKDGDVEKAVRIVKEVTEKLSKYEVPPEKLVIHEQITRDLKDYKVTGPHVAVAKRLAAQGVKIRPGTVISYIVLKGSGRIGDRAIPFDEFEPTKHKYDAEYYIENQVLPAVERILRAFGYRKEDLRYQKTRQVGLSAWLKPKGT
The settings on record: M13 primer extension, 2.5 mM MgCl2, 50 C; heparin elution 38 mS/cm; purified recombinant protein.

Data set [3] deals with T3, Kofu clone 6/7-D5 F591L,L400H,G458V,I706V (Artificial (KOD/Pfu chimera)).
T3 sequence (limits assumed): T2 sequence (limits assumed) with L400H, H410R, G458V, G580E, R588K, R597K, V679A, Q693R, I706V, E725D
The settings on record: M13 primer extension, 2.5 mM MgCl2, 50 C; heparin elution 40.7 mS/cm; purified recombinant protein.

“AACGCCAGGGTTTTCCCAGTCACGACGTTGTAAAACGACG”: the values for the activity on this sequence in data set [1], in data set [2] and in data set [3] were 3 fold vs Kofu, 3 fold vs Kofu and 7 fold vs Kofu, respectively.
